Source: publication PMC7819943, “Rice protein-binding microarrays: a tool to detect cis-acting elements near promoter regions in rice”
This is one part of the list.

Molecular target: T1, OsSMF1 (Oryza sativa, UniProt Q6ZLB0 1-436)
T1 sequence: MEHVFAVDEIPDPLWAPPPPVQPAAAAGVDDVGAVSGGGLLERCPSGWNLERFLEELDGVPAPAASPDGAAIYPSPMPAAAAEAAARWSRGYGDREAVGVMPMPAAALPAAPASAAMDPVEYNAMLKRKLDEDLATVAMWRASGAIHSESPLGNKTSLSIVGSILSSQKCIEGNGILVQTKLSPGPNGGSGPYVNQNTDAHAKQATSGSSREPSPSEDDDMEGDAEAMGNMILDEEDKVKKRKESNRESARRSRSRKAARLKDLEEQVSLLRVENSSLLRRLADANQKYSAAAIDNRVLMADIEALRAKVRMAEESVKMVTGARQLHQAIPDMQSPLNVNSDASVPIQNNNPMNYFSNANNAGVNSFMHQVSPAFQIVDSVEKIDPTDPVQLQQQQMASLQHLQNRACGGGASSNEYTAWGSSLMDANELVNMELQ
Test: protein-binding microarray (RPBM); PBS, 2% BSA, 51.3 ng/ul salmon testes DNA, 50 uM zinc acetate, 200 nM TF, 25 C, 1 h; high values mean tight binding
Details: protein: recombinant; tags: N-terminal polyhistidine and DsRed monomer fusion (pET32a); chain copies: 2; label: CyDye5-dUTP incorporated in the synthesized complementary strand; 3' TTTTT single-stranded linker to array surface; dsDNA, one strand shown
In short: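 The binding signal is fluorescence intensity per array feature (arbitrary units). Readings came from an Axon 4000B scanner after a washed, 2% BSA-blocked, double-stranded custom Agilent array had been incubated for 1 h at 25 °C with 200 nM protein and 50 µM zinc acetate. The protein was a Ni–NTA-purified transcription factor fused N-terminally to polyhistidine and DsRed, expressed in E. coli BL21-CodonPlus.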

Sequence	binding signal
GGCTGGTGCTGACCTGCTGATGCAATCGCCGGCCCTGCCACGGAGTCACCTAGTGCAG	7410 fluorescence intensity (a.u.)
ACTTATGCTCCAATTCTTATGAGATGCTTGTGCATGGGAACGGAGTCACCTAGTGCAG	27000 fluorescence intensity (a.u.)
AGTGTGTAGGGATGTTGAGATTTCTTTTGATGTTGTTTTACGGAGTCACCTAGTGCAG	3350 fluorescence intensity (a.u.)
ACCAAGCCGATGTAAATGACCTGTTTGAGTGAACTTAAGACGGAGTCACCTAGTGCAG	3780 fluorescence intensity (a.u.)
GAACGGAGGAGGGAGGGAGCGGCGCGCGGCCGTGGCGGTGCGGAGTCACCTAGTGCAG	12100 fluorescence intensity (a.u.)
CAAGATCTTGTAATGTGTGTGGTCATAATTTAGCTCAATCCGGAGTCACCTAGTGCAG	8930 fluorescence intensity (a.u.)
ACACATCGGAAATTATCTGTAGAAGCTCTAAGCATATATACGGAGTCACCTAGTGCAG	3660 fluorescence intensity (a.u.)
GTCCTCAGATATTTTGTTCGGTGTTTGAGGAACATGATCTCGGAGTCACCTAGTGCAG	23600 fluorescence intensity (a.u.)
TATTTTAAGTCAAACATGCTTATCTGTAACTATTAATTTTCGGAGTCACCTAGTGCAG	3300 fluorescence intensity (a.u.)
TTTGTATACCATGAATCCGATCAACCCAAATATATTTTGTCGGAGTCACCTAGTGCAG	3670 fluorescence intensity (a.u.)
GCCTTGAGCATCACCGTCCTCAGCATCCTCGCGCTGTCAACGGAGTCACCTAGTGCAG	3420 fluorescence intensity (a.u.)
TCCTATTTTCCGCATTCTCTGCCCTACTTCAAAATCTGGGCGGAGTCACCTAGTGCAG	3240 fluorescence intensity (a.u.)
AATTGGAAGTCTTAGTCAAATACTGCTCCCTCCATTTCAACGGAGTCACCTAGTGCAG	3280 fluorescence intensity (a.u.)
TTCAAAATTTCCAACGTTTATGTTGAAAGTGCACGTTCGTCGGAGTCACCTAGTGCAG	3280 fluorescence intensity (a.u.)
CAGGGGCAACGGCGGCGGTCGCTGACGCCGTCGCGGTCTTCGGAGTCACCTAGTGCAG	3950 fluorescence intensity (a.u.)
GACATGACCCCTCGATCGTCCGCCACGTGTCGCGCGCCATCGGAGTCACCTAGTGCAG	31100 fluorescence intensity (a.u.)
ACTATAGATAATAATTTCTAGTGGGTGATGACGTGGCACACGGAGTCACCTAGTGCAG	31900 fluorescence intensity (a.u.)
TGGTTGACTGGCCCACGTGTCGGTGACGGGGAGTTGCCTGCGGAGTCACCTAGTGCAG	16200 fluorescence intensity (a.u.)
AATTCGAATTTTCGGATAACAGATCCTTCTAATCCAGTCTCGGAGTCACCTAGTGCAG	3240 fluorescence intensity (a.u.)
GGATGCCAGCTGCAGATGCGACGCCCACGTACTACGTCTGCGGAGTCACCTAGTGCAG	5600 fluorescence intensity (a.u.)
ACGGTCGCCCGGTCAGCGCGCACACACACGTCTTACGTCTCGGAGTCACCTAGTGCAG	3590 fluorescence intensity (a.u.)

Sequence	binding signal
CTAGCTACTTCTATCCTCCACCTCCTAAATGATCGATTTGCGGAGTCACCTAGTGCAG	3740 fluorescence intensity (a.u.)
CTTTTGTTGATTCTTGTCCATGATCCCAAGTCATCACTTTCGGAGTCACCTAGTGCAG	4160 fluorescence intensity (a.u.)
AGCCGGGACCTCGCCGCCGTCACCTTCTCCCCGCACACTCCGGAGTCACCTAGTGCAG	4920 fluorescence intensity (a.u.)
CGGTCGATGCGGGCCGAAGCGGCGTCCACGCGAGCACAACCGGAGTCACCTAGTGCAG	3170 fluorescence intensity (a.u.)
CCTCCGCTTCCCTCTTCTCACGTCATGATAGCCGCCGAGGCGGAGTCACCTAGTGCAG	15700 fluorescence intensity (a.u.)
AACGACTCGCCCTTGCGATTTTGCGAATGATAAACGAACGCGGAGTCACCTAGTGCAG	24800 fluorescence intensity (a.u.)
TGCGAGATAAATCTTTTAAGCCTGATTGCGTGTTGATTTGCGGAGTCACCTAGTGCAG	4310 fluorescence intensity (a.u.)
GCGCTCGCACGTGGGCACGTGGCTAGGCTTGGCTTCGCTTCGGAGTCACCTAGTGCAG	5600 fluorescence intensity (a.u.)
AGGAGGAAGAAGAGGAAGGTGAGAATGACACGTGGGTCCCCGGAGTCACCTAGTGCAG	11900 fluorescence intensity (a.u.)
AGTTTATTATATATTATAGATGATGCATATTCAGGTCGGACGGAGTCACCTAGTGCAG	3610 fluorescence intensity (a.u.)
TAATTCAGCTTAATAAATTCGTCCAGCTGTTTACTGACTGCGGAGTCACCTAGTGCAG	52800 fluorescence intensity (a.u.)
AACTTTGTTGTTGATGACGTTTTCAGTTGAAGTCGTTCACCGGAGTCACCTAGTGCAG	7120 fluorescence intensity (a.u.)
CGGGCTTGTGAAGACCTTCACCTCTGACGGGCCACCATCACGGAGTCACCTAGTGCAG	3260 fluorescence intensity (a.u.)
AAACGGAGGTCGTAGGACTGAATCTACTCACATGGGCACACGGAGTCACCTAGTGCAG	3870 fluorescence intensity (a.u.)
GAGTTTGGCACTTCGAAAGGCAAGAGTCTGTCCACGTCGGCGGAGTCACCTAGTGCAG	10600 fluorescence intensity (a.u.)
TGGGTTCGAATCATTTGTGTGCCACAGTGTTACATTCGGGCGGAGTCACCTAGTGCAG	3160 fluorescence intensity (a.u.)
GTCTCGACACTGACTGTGATGCTTTGCATCGTCATTTGTCCGGAGTCACCTAGTGCAG	3910 fluorescence intensity (a.u.)
AAGGTCGCCAGCCAGGTGTGACGCGTTCGGGGCCCCGCACCGGAGTCACCTAGTGCAG	6570 fluorescence intensity (a.u.)
GCTTCTTCTACTTATTAATCCTTCGTCACTATCGATCGGACGGAGTCACCTAGTGCAG	3440 fluorescence intensity (a.u.)
TAATCACCCTATTAACCTGCATTTCTCATCTACCCCTTCACGGAGTCACCTAGTGCAG	3910 fluorescence intensity (a.u.)
CATGTTTGTCGTGTGGCCAGGACGTGAAGTCCTCGTCACCCGGAGTCACCTAGTGCAG	5340 fluorescence intensity (a.u.)

2 entries from above, comma-delimited:
Sequence,binding signal
AGGAGGAAGAAGAGGAAGGTGAGAATGACACGTGGGTCCCCGGAGTCACCTAGTGCAG,11900 fluorescence intensity (a.u.)
AGTTTATTATATATTATAGATGATGCATATTCAGGTCGGACGGAGTCACCTAGTGCAG,3610 fluorescence intensity (a.u.)
